Our source for the NP40-soluble protein abundance values is the supplement of paper PMC6411743.

The chains behind the UniProt entries cited, without tags or fusion partners. Where a name states a change or a piece, a line headed by the entry shows the natural chain unless it says otherwise.
UniProt O60888: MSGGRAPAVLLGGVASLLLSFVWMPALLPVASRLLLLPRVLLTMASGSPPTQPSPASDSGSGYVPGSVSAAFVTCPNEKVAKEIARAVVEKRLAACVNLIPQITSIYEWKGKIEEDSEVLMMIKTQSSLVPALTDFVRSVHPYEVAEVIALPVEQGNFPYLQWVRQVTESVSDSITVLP
UniProt O60711: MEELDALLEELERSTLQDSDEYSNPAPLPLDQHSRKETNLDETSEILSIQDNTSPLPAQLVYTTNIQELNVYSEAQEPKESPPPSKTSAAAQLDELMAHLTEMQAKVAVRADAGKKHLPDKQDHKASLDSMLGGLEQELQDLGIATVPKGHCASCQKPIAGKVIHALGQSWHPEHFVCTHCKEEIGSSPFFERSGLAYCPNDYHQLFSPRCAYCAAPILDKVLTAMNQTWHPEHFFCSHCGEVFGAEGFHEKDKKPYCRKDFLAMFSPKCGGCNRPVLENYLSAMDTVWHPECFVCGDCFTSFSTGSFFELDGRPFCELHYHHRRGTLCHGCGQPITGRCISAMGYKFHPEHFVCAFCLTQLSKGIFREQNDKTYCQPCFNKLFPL
UniProt O75093: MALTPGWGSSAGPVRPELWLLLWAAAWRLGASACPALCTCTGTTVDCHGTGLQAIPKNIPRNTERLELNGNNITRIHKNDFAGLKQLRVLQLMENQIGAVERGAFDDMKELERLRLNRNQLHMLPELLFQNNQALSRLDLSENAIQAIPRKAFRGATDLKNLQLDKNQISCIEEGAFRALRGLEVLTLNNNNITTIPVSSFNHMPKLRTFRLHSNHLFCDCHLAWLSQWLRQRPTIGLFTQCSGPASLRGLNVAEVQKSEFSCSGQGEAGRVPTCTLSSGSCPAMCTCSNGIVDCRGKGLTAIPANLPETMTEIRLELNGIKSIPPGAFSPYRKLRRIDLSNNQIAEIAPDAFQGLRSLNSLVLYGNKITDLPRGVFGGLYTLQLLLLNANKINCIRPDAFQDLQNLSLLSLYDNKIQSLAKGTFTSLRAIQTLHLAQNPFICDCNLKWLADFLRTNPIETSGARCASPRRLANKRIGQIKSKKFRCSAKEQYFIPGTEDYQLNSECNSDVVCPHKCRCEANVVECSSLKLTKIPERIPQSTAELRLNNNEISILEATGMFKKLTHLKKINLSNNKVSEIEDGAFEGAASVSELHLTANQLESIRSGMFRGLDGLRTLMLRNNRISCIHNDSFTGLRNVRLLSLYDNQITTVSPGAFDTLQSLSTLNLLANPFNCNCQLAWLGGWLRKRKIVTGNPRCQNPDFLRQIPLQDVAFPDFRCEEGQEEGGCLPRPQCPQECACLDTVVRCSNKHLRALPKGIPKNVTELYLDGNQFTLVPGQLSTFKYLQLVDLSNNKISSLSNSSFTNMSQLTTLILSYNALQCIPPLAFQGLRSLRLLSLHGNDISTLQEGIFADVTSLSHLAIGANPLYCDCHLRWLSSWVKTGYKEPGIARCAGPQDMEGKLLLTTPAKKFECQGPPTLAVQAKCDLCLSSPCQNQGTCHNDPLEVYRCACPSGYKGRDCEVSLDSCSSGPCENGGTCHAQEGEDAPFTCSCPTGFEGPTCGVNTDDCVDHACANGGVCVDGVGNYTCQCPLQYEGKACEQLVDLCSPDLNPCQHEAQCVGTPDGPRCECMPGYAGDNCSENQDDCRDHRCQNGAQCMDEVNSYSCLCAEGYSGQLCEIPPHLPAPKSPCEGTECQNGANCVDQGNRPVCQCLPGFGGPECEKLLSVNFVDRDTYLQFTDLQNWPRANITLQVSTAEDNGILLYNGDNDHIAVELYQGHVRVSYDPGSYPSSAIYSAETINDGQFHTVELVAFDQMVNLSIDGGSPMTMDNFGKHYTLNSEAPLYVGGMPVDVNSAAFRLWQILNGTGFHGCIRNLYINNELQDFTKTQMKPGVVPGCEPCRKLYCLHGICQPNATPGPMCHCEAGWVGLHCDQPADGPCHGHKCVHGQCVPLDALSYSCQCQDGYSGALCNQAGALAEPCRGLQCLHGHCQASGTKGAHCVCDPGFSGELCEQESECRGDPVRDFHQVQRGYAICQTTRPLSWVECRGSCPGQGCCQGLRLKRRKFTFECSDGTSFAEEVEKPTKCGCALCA
UniProt O95487: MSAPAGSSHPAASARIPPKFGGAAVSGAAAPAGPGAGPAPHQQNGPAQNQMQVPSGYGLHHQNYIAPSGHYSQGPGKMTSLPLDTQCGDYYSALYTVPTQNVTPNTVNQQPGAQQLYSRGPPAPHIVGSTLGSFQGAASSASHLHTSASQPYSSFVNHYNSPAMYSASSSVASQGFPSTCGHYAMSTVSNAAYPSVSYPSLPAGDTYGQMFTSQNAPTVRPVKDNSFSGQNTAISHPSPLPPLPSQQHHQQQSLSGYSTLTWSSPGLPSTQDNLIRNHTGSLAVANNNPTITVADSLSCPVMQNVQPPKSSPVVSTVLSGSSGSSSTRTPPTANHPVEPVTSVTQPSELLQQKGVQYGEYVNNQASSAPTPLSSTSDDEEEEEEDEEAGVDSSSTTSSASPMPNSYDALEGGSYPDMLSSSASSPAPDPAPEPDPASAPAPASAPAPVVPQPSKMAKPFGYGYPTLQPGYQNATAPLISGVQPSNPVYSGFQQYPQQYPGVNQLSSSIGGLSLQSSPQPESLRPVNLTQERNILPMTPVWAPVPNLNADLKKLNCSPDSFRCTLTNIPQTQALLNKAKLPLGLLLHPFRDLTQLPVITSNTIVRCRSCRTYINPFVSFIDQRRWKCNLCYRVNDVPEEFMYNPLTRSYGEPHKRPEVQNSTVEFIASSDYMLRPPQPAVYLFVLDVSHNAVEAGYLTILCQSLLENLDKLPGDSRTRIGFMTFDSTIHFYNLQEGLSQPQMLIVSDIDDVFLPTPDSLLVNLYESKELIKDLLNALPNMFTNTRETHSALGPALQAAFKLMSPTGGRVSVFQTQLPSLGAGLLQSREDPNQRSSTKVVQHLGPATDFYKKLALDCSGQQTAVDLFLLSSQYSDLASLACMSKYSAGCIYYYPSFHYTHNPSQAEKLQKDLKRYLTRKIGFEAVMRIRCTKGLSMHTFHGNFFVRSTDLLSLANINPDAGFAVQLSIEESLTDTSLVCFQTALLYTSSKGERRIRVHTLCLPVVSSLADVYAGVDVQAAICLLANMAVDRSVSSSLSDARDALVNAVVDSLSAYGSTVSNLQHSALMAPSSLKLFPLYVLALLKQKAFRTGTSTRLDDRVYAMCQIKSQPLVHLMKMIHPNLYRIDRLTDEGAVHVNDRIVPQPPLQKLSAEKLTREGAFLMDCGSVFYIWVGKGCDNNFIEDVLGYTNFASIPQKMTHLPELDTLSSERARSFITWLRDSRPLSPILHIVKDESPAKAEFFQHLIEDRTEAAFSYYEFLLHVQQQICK
UniProt O75348, whole entry: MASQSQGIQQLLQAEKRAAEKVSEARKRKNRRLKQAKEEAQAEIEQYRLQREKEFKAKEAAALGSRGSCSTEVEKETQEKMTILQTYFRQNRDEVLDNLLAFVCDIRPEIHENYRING
UniProt O95294: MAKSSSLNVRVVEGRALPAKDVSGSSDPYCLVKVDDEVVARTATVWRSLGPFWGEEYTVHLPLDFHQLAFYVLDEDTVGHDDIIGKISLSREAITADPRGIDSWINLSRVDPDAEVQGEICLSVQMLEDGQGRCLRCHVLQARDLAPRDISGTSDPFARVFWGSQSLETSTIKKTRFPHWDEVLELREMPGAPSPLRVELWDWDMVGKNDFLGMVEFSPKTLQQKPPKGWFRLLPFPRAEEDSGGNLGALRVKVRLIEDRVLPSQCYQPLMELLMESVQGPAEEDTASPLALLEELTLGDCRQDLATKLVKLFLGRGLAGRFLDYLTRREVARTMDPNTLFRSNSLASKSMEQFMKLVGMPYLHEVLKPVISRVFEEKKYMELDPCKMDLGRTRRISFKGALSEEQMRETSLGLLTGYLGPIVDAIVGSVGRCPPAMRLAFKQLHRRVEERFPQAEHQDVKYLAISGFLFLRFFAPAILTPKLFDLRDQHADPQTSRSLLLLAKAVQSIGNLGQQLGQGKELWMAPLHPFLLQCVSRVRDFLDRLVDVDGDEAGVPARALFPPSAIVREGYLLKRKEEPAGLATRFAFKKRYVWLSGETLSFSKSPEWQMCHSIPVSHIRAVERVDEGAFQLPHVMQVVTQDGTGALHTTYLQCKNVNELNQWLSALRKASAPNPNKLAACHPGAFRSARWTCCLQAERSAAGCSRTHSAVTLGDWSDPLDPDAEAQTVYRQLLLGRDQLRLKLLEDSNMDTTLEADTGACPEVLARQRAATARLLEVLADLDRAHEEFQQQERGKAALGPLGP
UniProt O76024: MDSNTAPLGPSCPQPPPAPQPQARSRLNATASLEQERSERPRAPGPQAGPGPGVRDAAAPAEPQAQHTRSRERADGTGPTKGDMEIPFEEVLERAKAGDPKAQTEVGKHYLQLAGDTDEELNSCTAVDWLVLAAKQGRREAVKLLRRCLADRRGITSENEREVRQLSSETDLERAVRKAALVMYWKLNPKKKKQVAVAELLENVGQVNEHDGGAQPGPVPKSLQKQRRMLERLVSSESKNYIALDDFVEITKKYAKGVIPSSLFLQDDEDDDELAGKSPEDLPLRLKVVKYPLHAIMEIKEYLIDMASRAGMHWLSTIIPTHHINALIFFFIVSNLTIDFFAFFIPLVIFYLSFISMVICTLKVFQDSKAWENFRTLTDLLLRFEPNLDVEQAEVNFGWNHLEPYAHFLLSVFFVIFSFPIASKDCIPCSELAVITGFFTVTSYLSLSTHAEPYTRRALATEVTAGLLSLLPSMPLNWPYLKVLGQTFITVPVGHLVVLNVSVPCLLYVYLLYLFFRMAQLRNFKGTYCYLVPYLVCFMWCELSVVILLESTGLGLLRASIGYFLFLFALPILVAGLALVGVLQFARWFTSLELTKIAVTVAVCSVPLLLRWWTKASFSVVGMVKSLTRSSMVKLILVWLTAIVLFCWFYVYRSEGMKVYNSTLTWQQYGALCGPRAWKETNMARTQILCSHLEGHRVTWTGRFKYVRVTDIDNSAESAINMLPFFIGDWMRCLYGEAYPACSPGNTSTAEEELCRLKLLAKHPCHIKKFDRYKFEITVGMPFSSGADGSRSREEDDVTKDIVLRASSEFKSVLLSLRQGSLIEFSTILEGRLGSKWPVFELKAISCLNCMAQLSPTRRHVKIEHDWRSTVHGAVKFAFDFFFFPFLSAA
UniProt O95336: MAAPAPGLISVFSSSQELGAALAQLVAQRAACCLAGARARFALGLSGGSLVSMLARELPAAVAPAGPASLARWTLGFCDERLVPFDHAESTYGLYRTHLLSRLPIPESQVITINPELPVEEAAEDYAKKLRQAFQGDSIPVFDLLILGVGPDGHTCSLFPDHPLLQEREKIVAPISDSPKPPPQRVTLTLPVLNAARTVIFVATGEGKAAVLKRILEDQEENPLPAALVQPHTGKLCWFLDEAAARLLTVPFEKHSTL
UniProt O95716: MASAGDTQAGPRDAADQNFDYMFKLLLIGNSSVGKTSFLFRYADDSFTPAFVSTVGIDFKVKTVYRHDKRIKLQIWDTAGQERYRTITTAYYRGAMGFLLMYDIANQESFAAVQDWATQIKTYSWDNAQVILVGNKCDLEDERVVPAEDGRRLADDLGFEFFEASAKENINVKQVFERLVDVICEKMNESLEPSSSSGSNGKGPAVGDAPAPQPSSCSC
UniProt O94919: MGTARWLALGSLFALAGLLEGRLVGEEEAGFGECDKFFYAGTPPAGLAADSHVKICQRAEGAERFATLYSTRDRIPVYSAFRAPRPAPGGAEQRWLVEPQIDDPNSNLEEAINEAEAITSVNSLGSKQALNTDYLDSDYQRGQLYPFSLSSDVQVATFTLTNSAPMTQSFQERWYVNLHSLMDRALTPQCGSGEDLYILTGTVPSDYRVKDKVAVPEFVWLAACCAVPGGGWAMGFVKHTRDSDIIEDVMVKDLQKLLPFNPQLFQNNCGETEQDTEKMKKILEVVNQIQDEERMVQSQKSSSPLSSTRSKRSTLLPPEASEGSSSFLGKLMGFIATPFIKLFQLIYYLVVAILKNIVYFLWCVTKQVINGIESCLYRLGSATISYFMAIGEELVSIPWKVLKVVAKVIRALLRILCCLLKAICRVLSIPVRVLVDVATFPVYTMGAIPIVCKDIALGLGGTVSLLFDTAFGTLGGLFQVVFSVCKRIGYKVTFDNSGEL
UniProt O76095: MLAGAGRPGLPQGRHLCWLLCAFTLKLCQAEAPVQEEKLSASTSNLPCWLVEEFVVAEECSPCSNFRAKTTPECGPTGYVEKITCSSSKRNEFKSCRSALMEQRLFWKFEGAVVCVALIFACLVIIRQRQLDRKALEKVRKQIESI
UniProt O43924: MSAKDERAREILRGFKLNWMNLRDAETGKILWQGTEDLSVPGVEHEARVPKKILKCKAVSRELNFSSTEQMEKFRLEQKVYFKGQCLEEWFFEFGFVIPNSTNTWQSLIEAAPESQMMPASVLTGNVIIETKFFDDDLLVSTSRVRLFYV
UniProt O60925, whole entry: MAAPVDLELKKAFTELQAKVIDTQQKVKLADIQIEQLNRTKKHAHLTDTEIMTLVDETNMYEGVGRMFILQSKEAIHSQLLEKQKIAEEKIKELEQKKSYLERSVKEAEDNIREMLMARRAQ

Compound in the test: Nc1ncnc2c1ncn2[C@@H]1O[C@H](COP(=O)(O)OP(=O)(O)NP(=O)(O)O)[C@@H](O)[C@H]1O [adenylyl imidodiphosphate]
Nature of the test: NP40-soluble protein abundance relative to vehicle (solubility fold change) (ratio); higher = more soluble protein in presence of AMP-PNP. The method in brief: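 Across three independent experiments, values are fold changes against the detergent-processed vehicle for each replicate, based on vsn-normalised intensities. The samples were Jurkat crude lysate treated with eight concentrations (0.1 to 10 mM) for 10 min at room temperature and then 3 min at 37 °C. Lysate was solubilised with 0.8% NP40 and benzonase, ultracentrifuged, and the supernatant analysed by TMT-labelled LC-MS/MS.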

± gives the standard deviation of the averaged measurements. Only a part is listed here, and it is no random draw. Most entries show no effect beyond the scatter of the controls.

As to UniProt O75787 and related entries, the NP40-soluble protein abundance came to 0.983 ± 0.058 (concentration: 0.1mM) and 1.03 ± 0.064 (concentration: 0.5mM).

ZBTB7A (UniProt O95365): the NP40-soluble protein abundance is 0.984 ± 0.029 (concentration: 0.1mM) and 0.978 ± 0.051 (concentration: 0.5mM).

For UniProt O60888 and related entries, the NP40-soluble protein abundance was 1.03 ± 0.047 (concentration: 0.1mM) and 1.07 ± 0.046 (concentration: 0.5mM).

In the case of UniProt O76054 and related entries, the NP40-soluble protein abundance is, setting by setting: (concentration: 0.1mM) 0.98 ± 0.031; (concentration: 0.5mM) 1.01 ± 0.068.

As to MTA2 (UniProt O94776), the NP40-soluble protein abundance reads like this: (concentration: 0.1mM) 0.999 ± 0.019; (concentration: 0.5mM) 1.01 ± 0.016.

Regarding UniProt O94864 and related entries, the NP40-soluble protein abundance (concentration: 0.1mM) turned out to be 0.96529 ± 0.00021 and the NP40-soluble protein abundance (concentration: 0.5mM) is 1.01 ± 0.055.

Take KBTBD11 (UniProt O94819): the NP40-soluble protein abundance runs as follows: (concentration: 0.1mM) 0.965 ± 0.01; (concentration: 0.5mM) 0.976 ± 0.013.

On to KIF4A (UniProt O95239), for which the NP40-soluble protein abundance is, setting by setting: (concentration: 0.1mM) 0.9808 ± 0.0096; (concentration: 0.5mM) 1.01 ± 0.045.

As for UniProt O60711 and related entries, the NP40-soluble protein abundance (concentration: 0.1mM) turned out to be 0.9862 ± 0.0066 and the NP40-soluble protein abundance (concentration: 0.5mM) is 1 ± 0.048.

In the case of UniProt O60287 and related entries, the NP40-soluble protein abundance reads like this: (concentration: 0.1mM) 1.01 ± 0.031; (concentration: 0.5mM) 1 ± 0.024.

With UniProt O60502, the NP40-soluble protein abundance was determined as 0.975 ± 0.016 (concentration: 0.1mM) and 0.974 ± 0.046 (concentration: 0.5mM).

As for UniProt O60268 and related entries, the NP40-soluble protein abundance by setting is: (concentration: 0.1mM) 1 ± 0.047; (concentration: 0.5mM) 1.01 ± 0.095.

For UniProt O75379 and related entries, the NP40-soluble protein abundance came out at 0.989 ± 0.048 (concentration: 0.1mM) and 1.01 ± 0.022 (concentration: 0.5mM).

On to UniProt O75093 and related entries, for which the NP40-soluble protein abundance runs as follows: (concentration: 0.1mM) 0.997 ± 0.024; (concentration: 0.5mM) 0.981 ± 0.032.

For IPO13 (UniProt O94829), the NP40-soluble protein abundance came to 0.9692 ± 0.0035 (concentration: 0.1mM) and 0.9672 ± 0.0074 (concentration: 0.5mM).

For UniProt O95696 and related entries, the NP40-soluble protein abundance (concentration: 0.1mM) stood at 1.02 ± 0.014 and the NP40-soluble protein abundance (concentration: 0.5mM) turned out to be 1.014 ± 0.0096.

UniProt O75494 and related entries: the NP40-soluble protein abundance amounted to 1.03 ± 0.021 (concentration: 0.1mM) and 1.02 ± 0.038 (concentration: 0.5mM).

Turning to WDR1 (UniProt O75083), the NP40-soluble protein abundance by setting is: (concentration: 0.1mM) 1 ± 0.024; (concentration: 0.5mM) 0.997 ± 0.046.

As to USP1 (UniProt O94782), the NP40-soluble protein abundance (concentration: 0.1mM) stood at 1.06 ± 0.18 and the NP40-soluble protein abundance (concentration: 0.5mM) was 0.994 ± 0.044.

As to CIAO1 (UniProt O76071), the NP40-soluble protein abundance turned out to be 1.02 ± 0.026 (concentration: 0.1mM) and 1.01 ± 0.083 (concentration: 0.5mM).

In the case of SMPD2 (UniProt O60906), the NP40-soluble protein abundance runs as follows: (concentration: 0.1mM) 0.981 ± 0.032; (concentration: 0.5mM) 0.985 ± 0.021.

Turning to KPNA6 (UniProt O60684), the NP40-soluble protein abundance by setting is: (concentration: 0.1mM) 1.005 ± 0.0051; (concentration: 0.5mM) 0.994 ± 0.014.

Consider UniProt O95487 and related entries, for which the NP40-soluble protein abundance stood at 1.01 ± 0.026 (concentration: 0.1mM) and 1.03 ± 0.011 (concentration: 0.5mM).

Regarding SNX3 (UniProt O60493), the NP40-soluble protein abundance by setting is: (concentration: 0.1mM) 0.997 ± 0.046; (concentration: 0.5mM) 1.05 ± 0.13.

Turning to SNAPIN (UniProt O95295), the NP40-soluble protein abundance runs as follows: (concentration: 0.1mM) 0.989 ± 0.019; (concentration: 0.5mM) 0.998 ± 0.05.

For the target UniProt O95243-2|O95243-5|O95243, the NP40-soluble protein abundance by setting is: (concentration: 0.1mM) 0.985 ± 0.023; (concentration: 0.5mM) 0.974 ± 0.026.

With UniProt O75569 and related entries, the NP40-soluble protein abundance (concentration: 0.1mM) was found to be 1.02 ± 0.048 and the NP40-soluble protein abundance (concentration: 0.5mM) was 0.996 ± 0.023.

Take UniProt O75909 and related entries: the NP40-soluble protein abundance worked out at 1.02 ± 0.012 (concentration: 0.1mM) and 1.02 ± 0.023 (concentration: 0.5mM).

Regarding UniProt O75143 and related entries, the NP40-soluble protein abundance by setting is: (concentration: 0.1mM) 1.01 ± 0.03; (concentration: 0.5mM) 0.999 ± 0.037.

In the case of ATP6V1G1 (UniProt O75348), the NP40-soluble protein abundance reads like this: (concentration: 0.1mM) 0.98 ± 0.04; (concentration: 0.5mM) 0.958 ± 0.035.

For “UniProt O75190-2|A0A0J9YX62|O75190 and related entries”, the NP40-soluble protein abundance reads like this: (concentration: 0.1mM) 0.923 ± 0.023; (concentration: 0.5mM) 0.824 ± 0.062.

For NBN (UniProt O60934), the NP40-soluble protein abundance runs as follows: (concentration: 0.1mM) 0.9702 ± 0.0058; (concentration: 0.5mM) 0.992 ± 0.016.

As to UniProt O75179 and related entries, the NP40-soluble protein abundance was 0.991 ± 0.015 (concentration: 0.1mM) and 1.01 ± 0.031 (concentration: 0.5mM).

MOCS3 (UniProt O95396): the NP40-soluble protein abundance is 1.01 ± 0.034 (concentration: 0.1mM) and 1.02 ± 0.069 (concentration: 0.5mM).

Regarding UniProt O75534 and related entries, the NP40-soluble protein abundance worked out at 0.976 ± 0.012 (concentration: 0.1mM) and 0.996 ± 0.028 (concentration: 0.5mM).

With AGFG2 (UniProt O95081), the NP40-soluble protein abundance runs as follows: (concentration: 0.1mM) 0.97 ± 0.025; (concentration: 0.5mM) 0.993 ± 0.021.

With UniProt O75145 and related entries, the NP40-soluble protein abundance by setting is: (concentration: 0.1mM) 0.989 ± 0.061; (concentration: 0.5mM) 0.989 ± 0.045.

Consider UniProt O95294 and related entries, for which the NP40-soluble protein abundance reads like this: (concentration: 0.1mM) 0.9967 ± 0.0035; (concentration: 0.5mM) 1.01 ± 0.011.

With WFS1 (UniProt O76024), the NP40-soluble protein abundance runs as follows: (concentration: 0.1mM) 1.013 ± 0.0058; (concentration: 0.5mM) 0.998 ± 0.031.

Turning to FRYL (UniProt O94915), the NP40-soluble protein abundance by setting is: (concentration: 0.1mM) 0.988 ± 0.039; (concentration: 0.5mM) 0.99 ± 0.043.

As for UniProt O75558, the NP40-soluble protein abundance was 0.983 ± 0.02 (concentration: 0.1mM) and 1.02 ± 0.018 (concentration: 0.5mM).

TOX (UniProt O94900): the NP40-soluble protein abundance (concentration: 0.1mM) is 0.946 ± 0.025 and the NP40-soluble protein abundance (concentration: 0.5mM) is 0.988 ± 0.068.

As for PGLS (UniProt O95336), the NP40-soluble protein abundance reads like this: (concentration: 0.1mM) 0.998 ± 0.041; (concentration: 0.5mM) 1.02 ± 0.048.

On to RAB3D (UniProt O95716), for which the NP40-soluble protein abundance runs as follows: (concentration: 0.1mM) 1.028 ± 0.0097; (concentration: 0.5mM) 0.967 ± 0.057.

Regarding ENDOD1 (UniProt O94919), the NP40-soluble protein abundance by setting is: (concentration: 0.1mM) 1.03 ± 0.027; (concentration: 0.5mM) 1.03 ± 0.027.

Take UniProt O76095 and related entries: the NP40-soluble protein abundance is, setting by setting: (concentration: 0.1mM) 0.984 ± 0.049; (concentration: 0.5mM) 0.99 ± 0.023.

UniProt O94874: the NP40-soluble protein abundance is, setting by setting: (concentration: 0.1mM) 1 ± 0.03; (concentration: 0.5mM) 0.9893 ± 0.0067.

With VPS26A (UniProt O75436), the NP40-soluble protein abundance was 1.04 ± 0.087 (concentration: 0.1mM) and 0.975 ± 0.18 (concentration: 0.5mM).

On to UniProt O95197 and related entries, for which the NP40-soluble protein abundance worked out at 0.959 ± 0.061 (concentration: 0.1mM) and 1.02 ± 0.059 (concentration: 0.5mM).

With UTP20 (UniProt O75691), the NP40-soluble protein abundance reads like this: (concentration: 0.1mM) 1.02 ± 0.04; (concentration: 0.5mM) 1.01 ± 0.022.

Regarding UniProt O60504-2|O60504, the NP40-soluble protein abundance came to 1 ± 0.016 (concentration: 0.1mM) and 1.016 ± 0.0084 (concentration: 0.5mM).

With N4BP1 (UniProt O75113), the NP40-soluble protein abundance was 0.978 ± 0.027 (concentration: 0.1mM) and 0.981 ± 0.012 (concentration: 0.5mM).

Consider UniProt O75182 and related entries, for which the NP40-soluble protein abundance (concentration: 0.1mM) was determined as 0.961 ± 0.031 and the NP40-soluble protein abundance (concentration: 0.5mM) came to 0.986 ± 0.029.

Take UniProt O43924 and related entries: the NP40-soluble protein abundance is, setting by setting: (concentration: 0.1mM) 1.02 ± 0.011; (concentration: 0.5mM) 1.03 ± 0.074.

With HEXIM1 (UniProt O94992), the NP40-soluble protein abundance worked out at 1.013 ± 0.0096 (concentration: 0.1mM) and 0.993 ± 0.022 (concentration: 0.5mM).

Take TIPRL (UniProt O75663): the NP40-soluble protein abundance reads like this: (concentration: 0.1mM) 1 ± 0.043; (concentration: 0.5mM) 1.02 ± 0.036.

For the target PFDN1 (UniProt O60925), the NP40-soluble protein abundance by setting is: (concentration: 0.1mM) 0.9933 ± 0.0021; (concentration: 0.5mM) 1.02 ± 0.046.

Regarding CCNT1 (UniProt O60563), the NP40-soluble protein abundance is 1.01 ± 0.043 (concentration: 0.1mM) and 1.08 ± 0.052 (concentration: 0.5mM).

In the case of UniProt O94887 and related entries, the NP40-soluble protein abundance was found to be 0.985 ± 0.028 (concentration: 0.1mM) and 0.971 ± 0.018 (concentration: 0.5mM).

On to UniProt O60763 and related entries, for which the NP40-soluble protein abundance runs as follows: (concentration: 0.1mM) 0.993 ± 0.019; (concentration: 0.5mM) 1.02 ± 0.035.
